Data reported in PubChem BioAssay AID1259354 (Paczesny and Yang Labs, IUPUI and University of Michigan, 2018).
The whole screen tested about 78,000 compounds, of which about 1,800 (2.3%) were called active. Inconclusive results, whose numbers are uncertain, are shown with a selection of clear calls. No stated cut-off is given here; in the data, active means inhibition above about 30%; inconclusive means mostly about 10% to 28%; inactive means weaker than that.

Sequences of proteins named here, by UniProt entry; tags and fusion partners are left off. A change or cut given only in a name is not applied to a line headed by its entry.
UniProt Q01638: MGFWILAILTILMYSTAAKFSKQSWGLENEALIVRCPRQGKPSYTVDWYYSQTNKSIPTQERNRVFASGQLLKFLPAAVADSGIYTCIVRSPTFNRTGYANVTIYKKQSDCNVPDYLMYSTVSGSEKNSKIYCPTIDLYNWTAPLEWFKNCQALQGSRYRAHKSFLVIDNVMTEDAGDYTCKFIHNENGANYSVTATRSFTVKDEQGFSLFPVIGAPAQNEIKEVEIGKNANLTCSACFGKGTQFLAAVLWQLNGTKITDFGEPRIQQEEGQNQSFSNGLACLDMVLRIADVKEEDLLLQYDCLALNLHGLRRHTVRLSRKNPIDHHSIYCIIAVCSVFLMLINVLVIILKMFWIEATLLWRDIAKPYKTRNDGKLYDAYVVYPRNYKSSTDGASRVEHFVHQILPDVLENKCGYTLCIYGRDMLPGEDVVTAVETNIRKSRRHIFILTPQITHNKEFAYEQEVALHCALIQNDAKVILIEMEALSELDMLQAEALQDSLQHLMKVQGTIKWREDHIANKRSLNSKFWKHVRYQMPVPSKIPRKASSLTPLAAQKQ

The compounds below were run against Interleukin-1 receptor-like 1 (Homo sapiens) (UniProt Q01638) (assay: blocks human ST2 binding to IL-33, primary screen, biochemical, AlphaLISA (AID 1259354)). Conditions: AlphaLISA ST2-Fc/biotin-IL-33 interaction, 1 h; at 17 µM, active compounds read high.

Compound | inhibition
COCCCNC(=O)c1ccc2c(c1)NC(=O)C(N1CCCC1)S2 (stereo not drawn) | inconclusive: 12%
CCc1ccc(S(=O)(=O)N(C(C)=O)c2ccc3oc4c(c3c2)CCCC4)cc1 | inconclusive: 15%
OC1(c2ccccc2)CCN(Cc2ccc(F)cc2Cl)C1 (stereo not drawn) | inconclusive: 11%
CCSc1nc2c(c(=O)[nH]1)C(c1cccc(Br)c1)C1=C(CC(C)(C)CC1=O)N2 (stereo not drawn) | inactive
Cc1ccccc1OCC(=O)Nc1ccc(Br)c2cccnc12 | inconclusive: 16%
Cc1ccc(CN2CCC(N3CCC(C(=O)NCc4cccnc4)CC3)CC2)s1 | inconclusive: 12%
COc1ccccc1C(=O)N1CC2(C)CC1CC(C)(C)C2 (stereo not drawn) | inconclusive: 10%
O=[N+]([O-])c1ccccc1CSc1nnc2sc3ccccc3n12 | inconclusive: 11%
O=S(=O)(c1ccccc1)N1N=C(c2ccccc2)CC1c1ccccc1Cl (stereo not drawn) | inconclusive: 19%
COCc1nc(N(C)Cc2cc3cc(F)ccc3[nH]2)c2cnn(C)c2n1 | inactive
O=C(NCc1cccc(F)c1)c1c(O)c2ccccc2[nH]c1=O | inactive
Cc1ccc(N2C(=O)C3Sc4[nH]c(=O)sc4C(c4ccccc4)C3C2=O)cc1 (stereo not drawn) | active: 34%
COCc1nc(NCc2nc(C)c3c(n2)CCCC3)c2cnn(C)c2n1 | inactive
COc1ccc(N2CCN(CC(=O)Nc3nc(-c4ccccc4)cs3)CC2)cc1 | inconclusive: 14%
COc1ccc(-n2nc3c(c2NC(=O)c2cc(Cl)ccc2Cl)CSC3)cc1 | inconclusive: 13%
CCc1ccc(CN(C)S(=O)(=O)NCc2ccccc2)nc1 | inconclusive: 12%
Cc1ccc(NC(=O)CCc2nc(-c3ccccc3F)no2)nc1 | inactive
Cc1ncc(C(=O)NCCCc2nc3ccccc3s2)c(C)n1 | inconclusive: 14%
CC(CCC(O)C(C)(C)O)C1CCC2(C)C3=C(CC(O)C12C)C1(C)CC(OC(=O)CC(C)(O)CC(=O)O)C(O)C(C)(C)C1CC3 (stereo not drawn) | inactive
CC(=O)Nc1c(C)cc(C)cc1[N+](=O)[O-] | inconclusive: 11%
Cc1ccc2[nH]c(C(=O)O)c(-c3c(-c4ccccc4)ncn3CCCO)c2c1 | inactive
COc1ccc(/C=C2\SC(=O)N(CCN)C2=O)cc1OC | inconclusive: 16%
Cc1ccc(CN2CCN(Cc3cccn3-c3cccnc3)CC2CCO)o1 (stereo not drawn) | inactive
CCC1CCCCN1CCNS(=O)(=O)c1ccc2c(c1)CCN2C(=O)C1CC1 (stereo not drawn) | inconclusive: 11%

Compound | inhibition
CCOc1ccc(NS(=O)(=O)c2ccc(NS(=O)(=O)c3ccccc3)cc2)cc1 | inconclusive: 16%
COc1ccc(/C=C/C(=O)N2CCC[C@@H]3CN(Cc4cccs4)CC[C@H]32)cc1OC | inconclusive: 24%
Cn1c(=O)c2c(SCC(=O)N3CCCC3)nc(-c3ccc(F)cc3)nc2n(C)c1=O | inconclusive: 12%
Cc1ccc2[nH]c(C(=O)O)c(CN3CCC(N4CCCC4=O)CC3)c2c1 | inactive
Cc1ccc(F)cc1N1C(=O)C(N2C(=O)c3cccc([N+](=O)[O-])c3C2=O)C1c1cccs1 (stereo not drawn) | inconclusive: 20%
COc1c(S(=O)(=O)N2CCN(Cc3ccccc3)CC2)ccc(Cl)c1Cl | inconclusive: 15%
CCOC(=O)c1nn(CCc2scnc2C)c2c1CN(C/C(C)=C/c1ccco1)CC2 | inactive
CCC(=O)Nc1cccc(Oc2ccc3c(c2)C(=O)N(c2ccc(OC)cc2)C3=O)c1 | inactive
Cc1ccc([N+](=O)[O-])cc1NC(=O)c1cc2ccccc2oc1=O | inactive
CSc1nnc2c(n1)OC(/C=C/c1ccco1)Nc1ccc(Br)cc1-2 (stereo not drawn) | inactive
CCN(CC)C(=O)Cc1c(C(=O)O)[nH]c2ccc(Cl)cc12 | inconclusive: 10%
Cc1ccc(O)c(C2Nc3ccccc3NC3=C2C(=O)CC(C)(C)C3)c1 (stereo not drawn) | inactive
O=[N+]([O-])c1ccccc1S(=O)(=O)NCCc1ccc(F)cc1 | inconclusive: 11%
CCCCN(CC)C(=O)Cc1ccc([N+](=O)[O-])cc1 | inconclusive: 22%
CC(=O)N[C@@H]1C=C[C@@H](c2c(C)nn(-c3ccc(C(C)(C)C)cc3)c2C)C1 | inconclusive: 17%
CC(=O)c1cc(C#N)c(SCc2ccc(Cl)c(Cl)c2)nc1C | inactive
COc1ccccc1NC(c1cccnc1)c1ccc2cccnc2c1O (stereo not drawn) | inconclusive: 21%
CCOC(=O)c1ccc(NC(=O)c2cc3c(=O)n4cccc(C)c4nc3n2C)cc1 | inconclusive: 10%
CNC(=O)c1noc(CN2CCCC(N3CCCC3=O)C2)n1 (stereo not drawn) | inconclusive: 10%
Cc1nnnn1-c1ccc(Cc2n[nH]c(Cc3ccccc3)n2)cc1 | inconclusive: 11%
Cc1c(CN2CCn3nc(C(=O)N4CCCC4)cc3C2)oc2ccccc12 | inconclusive: 12%
CCS(=O)(=O)N1CCCC(C(=O)NCCN(C)C)C1 (stereo not drawn) | inconclusive: 12%
CC(=O)N1c2ccc(S(=O)(=O)N3CCCCC3)cc2CC1C(=O)N1CCc2ccccc2C1 (stereo not drawn) | inactive
CCOc1ccccc1-c1c(C#N)c(N)nc2c1CCCCCC2 | inactive

Compound | inhibition
CCc1cccc(OCCOCCN2CCOCC2)c1 | inconclusive: 19%
CC(C)C1CN(C(=O)c2ccc(-c3ncn[nH]3)cc2)CCC(=O)N1CC1CC1 (stereo not drawn) | inactive
COc1cc([N+](=O)[O-])ccc1-c1ccc(/C=C(\C#N)c2nc3ccccc3[nH]2)o1 | inconclusive: 20%
CN1CCc2c(sc3c2C(=O)NC(/C=C\c2ccc4c(c2)OCO4)N3)C1 (stereo not drawn) | inconclusive: 19%
CCc1ccccc1N=Cc1[nH]c2ccc(Br)c(Cl)c2c1O | inconclusive: 24%
O=C(NCCn1cc(SCC(=O)N2CCOCC2)c2ccccc21)c1ccc(F)cc1 | inconclusive: 10%
Cc1noc(CSCC(=O)Nc2cc3c(C)cc(=O)oc3cc2C)n1 | inactive
Nc1nc2n(n1)C(c1ccc(OCc3ccccc3)cc1)CC(c1ccc(F)cc1)N2 (stereo not drawn) | inactive
COc1cc(/C=C(\C#N)c2[nH]nc(N)c2C#N)ccc1O | inconclusive: 18%
CCOc1ccc(NC2=CC(=NS(=O)(=O)c3ccccc3)c3ccccc3C2=O)cc1 | active: 77%
CCOC(=O)C(C)Oc1cc(O)c2c(=O)cc(-c3ccccc3)oc2c1 (stereo not drawn) | inconclusive: 10%
CCCCN(C)C(=O)c1c[nH]n2c(=O)c(Cc3ccc(F)cc3)c(C)nc12 | inconclusive: 15%
COc1cccc(N=Cc2[nH]c3ccc(Br)c(Cl)c3c2O)c1 | inconclusive: 24%
O=C(CNS(=O)(=O)c1cccs1)Nc1cccc(F)c1 | inconclusive: 10%
CC(=NCc1ccco1)c1c(-c2ccccc2)[nH]n(-c2nc3ccccc3s2)c1=O | inactive
C=CCN(Cc1ccc(-n2cccn2)cc1)Cc1ccco1 | inconclusive: 19%
COc1ccccc1CN1CCC(CN(CC(C)C)C(=O)Cc2[nH]nc3ccccc23)CC1 | inconclusive: 15%
CCN(C)c1ccc(/C=C2/C(=O)N(c3ccc(Cl)c(Cl)c3)N=C2C)cc1 | active: 30%
CCOC(=O)C1(CCc2ccccc2)CCCN(C(=O)c2cnccn2)C1 (stereo not drawn) | inconclusive: 13%
Cc1cc([N+](=O)[O-])nn1CCCC(=O)Nc1ccc(Cl)c(Cl)c1 | inactive
CCOc1ccc(NC(=O)C2c3cc(OC)c(OC)cc3C(=O)N(C)C2c2ccccc2F)cc1 (stereo not drawn) | inconclusive: 13%
CC(C)(C)c1nnc(NC(=O)c2cccc(Br)c2)s1 | inconclusive: 11%
COc1ccc(/C=C(\C#N)c2nc(-c3ccc(OC)c(OC)c3)cs2)cc1O | inconclusive: 15%
O=C(NC1CC(=O)N(CCc2ccc(F)cc2)C1)c1cnccn1 (stereo not drawn) | inconclusive: 13%

Compound | inhibition
CCc1cc(C(=O)N(CC)Cc2cnn(C)c2)cs1 | inactive
CN1CCN2CCN(C(=O)c3cc(Cl)ccc3F)CC2C1=O (stereo not drawn) | inconclusive: 12%
CCOC(=O)CC(=O)CSc1nc2c(c(-c3cccs3)c1C#N)CCC2 | inconclusive: 12%
COc1ccc(Nc2cc(C)nc(Nc3ccc(NC(=O)c4ccc(OC)c(OC)c4)cc3)n2)cc1 | inconclusive: 23%
O=C(Nc1ccc(N2CCCC2)c(Cl)c1)c1ccccc1F | inconclusive: 28%
CCOc1ccc(C2N(c3cc(Cl)ccc3OC)C(=O)C3CCCN32)cc1 (stereo not drawn) | inconclusive: 10%
CC(C)Oc1ccc(C(=O)Nc2ccc(Cl)c(N3CCCS3(=O)=O)c2)cc1 | inactive
CC(C)(C)C(=O)NCc1nc2ccccc2[nH]1 | inactive
O=C(Cc1ccccc1)NC1(C(F)(F)F)N=C2SCCN2C1=O (stereo not drawn) | inconclusive: 12%
O=C1C(=Nc2cccc(F)c2)c2ccccc2N1CN1CCN(c2ccccc2)CC1 | inactive
COC(=O)c1c(C)oc2cc(Br)c(OCC(=O)C(C)(C)C)cc12 | inconclusive: 13%
CC1CN(C(=O)c2cccc(F)c2)C(C)CN1C(=O)c1cccc(F)c1 (stereo not drawn) | active: 85%
NC(=O)c1ccccc1NC(=O)c1cc2ccccn2n1 | inconclusive: 14%
CCNc1ncc(C(=O)N(C)Cc2cc3cc(F)ccc3[nH]2)cn1 | inconclusive: 11%
Nc1cc(=O)[nH]c2nnc(SCc3ccccc3)n12 | inactive
COc1ccc(-c2nc3c(cnn3-c3ccccc3)c(=O)[nH]2)cc1CO | inconclusive: 21%
CCN1CCN(C(=O)c2ccc(N3CCC(N4CCC(c5ccccc5)CC4)CC3)cc2)CC1 | inconclusive: 18%
CC(=O)c1c(C(C)=O)c(C)n(Cc2ccc(Cl)cc2)c1C | inconclusive: 12%
CN(C1CCCCC1)S(=O)(=O)c1cc(Br)cc2c1N(C(=O)C1CC1)CC2 | inconclusive: 17%
CC(=O)NC(=O)c1cc2ccccc2oc1=Nc1cccc(C#N)c1 | inconclusive: 15%
COc1ccc(C(=O)Nc2ccnn2C2CCN(C(=O)C3=CCCC3)CC2)cc1 | inconclusive: 25%

Among those listed so far, five have two or more sulfur atoms.
Compound | inhibition
O=[N+]([O-])c1ccccc1CSc1nnc2sc3ccccc3n12 | inconclusive: 11%
Cc1ccc(N2C(=O)C3Sc4[nH]c(=O)sc4C(c4ccccc4)C3C2=O)cc1 (stereo not drawn) | active: 34%
CCOc1ccc(NS(=O)(=O)c2ccc(NS(=O)(=O)c3ccccc3)cc2)cc1 | inconclusive: 16%
O=C(CNS(=O)(=O)c1cccs1)Nc1cccc(F)c1 | inconclusive: 10%
CCOC(=O)CC(=O)CSc1nc2c(c(-c3cccs3)c1C#N)CCC2 | inconclusive: 12%

Reprinted from above for reference:
Compound | inhibition
CC(=O)Nc1c(C)cc(C)cc1[N+](=O)[O-] | inconclusive: 11%
Cc1ccc2[nH]c(C(=O)O)c(-c3c(-c4ccccc4)ncn3CCCO)c2c1 | inactive
